Results published in patent EP3760204A1, “MEDICAMENT FOR PREVENTION OR TREATMENT OF HUNTINGTON'S DISEASE” (Medizinische Universität Graz, priority 2019, dated 2021).
At least one compound was matched to its structure with a doubt left.

How the values were obtained:
LC3 II = test: Western blot for autophagy marker LC3 II in liver biopsy samples of treated patients; assay type: in vivo, human; details: patients receiving rifampicin (n=8) vs placebo (n=4), Figure 1A
[1] = system: autophagic flux in human liver biopsy samples; test: Co-staining of LC3A (autophagosomes) and cathepsin D (lysosomes) in liver biopsy samples, autophagic flux; assay type: in vivo; details: rifampicin vs placebo, Figure 2
[2] = system: Primary human hepatocytes (PHH); test: LC3 II Western blot in primary human hepatocytes; assay type: cell-based; details: 50µM vs ethanol vehicle, Figure 3A
HepG2 cells [3] = test: Autophagic flux assay (LC3 II Western blot, with or without chloroquine) in HepG2 cells; assay type: cell-based, human; details: 50µM rifampicin, Figure 3B
Procedure: (§1) Western blot: Protein lysate was generated by homogenization (Magnalyzer, Roche) of tissue or cell pellet in homogenization buffer with protease and phosphatase inhibitors (Halt tablets, Invitrogen). After homogenization, lysates were sonicated 2x for 10" each. Lysates were then centrifuged for 10 min at 4°C and the supernatant was subjected to BCA protein estimation (Thermo Fisher). Equal amounts of lysate were loaded to self-made acrylamide gels. After separation, the protein was transferred to a PVDF membrane with semi-dry transfer.

TFEB [4] = test: TFEB expression (qPCR and Western blot) in liver biopsy samples of treated patients; assay type: in vivo, human; details: rifampicin vs placebo
HepG2 cells [5] = test: Lysosomal bioformation in HepG2 cells (electron microscopy, lysotracker immunofluorescence); assay type: cell-based, human; details: 50µM, fed conditions
TFEB [6] = test: LC3 II induction after TFEB knockdown (siTFEB) in HepG2 cells; assay type: cell-based, human; details: 50µM, +/- chloroquine, Figure 9
Procedure: as §1

alpha-1-antitrypsin = test: Pathological alpha-1-antitrypsin (Z-allele) accumulation in transfected HeLa cells; assay type: cell-based, human; details: HeLa cells transfected with PXR/RXR and Z-allele of alpha-1-antitrypsin, 50µM, 24h; Figure 10
Procedure: as §1

huntingtin = details: purified proteins, Heiser et al.; cited from earlier work
mHTT = details: Im et al.; cited from earlier work
HD disease progression = details: mice, Im et al.; cited from earlier work
HepG2 cells [7] = test: pGFP-RFP-LC3 autophagic flux assay in transfected HepG2 cells; details: fed condition, 50µM, Figures 3C, 6C

CO[C@H]1/C=C/O[C@@]2(C)Oc3c(C)c(O)c4c(O)c(c(/C=N/N5CCN(C)CC5)c(O)c4c3C2=O)NC(=O)/C(C)=C\C=C\[C@H](C)[C@H](O)[C@@H](C)[C@@H](O)[C@@H](C)[C@H](OC(C)=O)[C@@H]1C [rifampicin]
autophagy readout marker LC3 II (protein) (LC3 II): significantly induces | fusion of autophagosomes with lysosomes [1]: significantly increases | LC3 II protein [2]: induces | LC3 II protein in the presence of the lysosomal inhibitor chloroquine (autophagic flux) (HepG2 cells [3]): induces | TFEB mRNA (TFEB [4]; Figure 7B): significantly induces | TFEB protein (TFEB [4]; Figure 7C): significantly induces | lysosomes and autophagolysosomes with breakdown products (electron microscopy) (HepG2 cells [5]; Figure 8A): significantly more | number of lysosomes (lysotracker immunofluorescence) (HepG2 cells [5]; Figure 8B): increases | LC3 II in the presence of TFEB (TFEB [6]; non-targeting control (NT) HepG2 cells): induces | LC3 II induction in siTFEB cells (TFEB [6]; siTFEB HepG2 cells): blunted | pathological A1AT accumulation (alpha-1-antitrypsin): robustly decreases | inhibitory effect on huntingtin aggregation in vitro (huntingtin): little or no inhibitory effect | mHTT accumulation (mHTT): somewhat reduced | HD disease progression (HD disease progression): did not improve | autophagic flux (GFP-RFP-LC3 dots) (HepG2 cells [7]): increases
